Experimental data published in publication PMC11394911.
Results are given in words; binding and its absence hold for the method and conditions named. For some assays here: Binding seen in cells or lysates may run through a third protein.

B1: NubG-PPI1Δ1-358aa (domain or fragment, UniProt O23144 359-612)
chain: EDYEKRILQSLDSRQLSRDGRMRNPDEKPLIAPEAAPSKATPSETEVVPKAKAKPQPKEEPVSAPKPDATVAQNTEKAKDAVKVKNVADDDDDEVYGLGKPQKEEKPVDAATAKEMRKQEEIAKAKQAMERKKKLAEKAAAKAAIRAQKEAEKKEKKEQEKKAKKKTGGNTETETEEVPEASEEEIEAPVQEEKPQKEKVFKEKPIRNRTRGRGPETIPRAILKRKKSTNYWVYAAPAALVVLLLLVLGYYYVL
B2: cEYFP-PPI1Δ1-358aa (domain or fragment, UniProt O23144 359-612)
chain: EDYEKRILQSLDSRQLSRDGRMRNPDEKPLIAPEAAPSKATPSETEVVPKAKAKPQPKEEPVSAPKPDATVAQNTEKAKDAVKVKNVADDDDDEVYGLGKPQKEEKPVDAATAKEMRKQEEIAKAKQAMERKKKLAEKAAAKAAIRAQKEAEKKEKKEQEKKAKKKTGGNTETETEEVPEASEEEIEAPVQEEKPQKEKVFKEKPIRNRTRGRGPETIPRAILKRKKSTNYWVYAAPAALVVLLLLVLGYYYVL

Experiments:
[1] = target: Cub-XopLXccΔLRR (Xanthomonas campestris pv. campestris 8004); assay: two-hybrid; split-ubiquitin yeast two-hybrid, point-to-point co-transformation of yeast NMY51; Cub fusions (pDHB1) as bait, NubG fusions (pPR3N) as prey; growth on selective medium (-TLHA) and lacZ (X-gal) activity, 30 °C
[2] = target: XopLXccΔLRR (BiFC fusion) (Xanthomonas campestris pv. campestris 8004); assay: split reporter; BiFC with nEYFP and cEYFP fusions in transfected Arabidopsis protoplasts; YFP fluorescence detected after 8 h by confocal microscopy

Binder	binding [1]	binding [2]
B1	no binding	–
B2	–	no binding
